The target in this assay is bZIP63-YN / bZIP63-YC (UniProt B9DGI8). The assay can be described thus: split reporter; mYFP BiFC of YN and YC fusions of the same protein in transfected Arabidopsis cell-culture protoplasts, read by flow cytometry (test of detection sensitivity).

Results are given in words; binding and its absence hold for the method and conditions named. Binding seen in cells or lysates may run through a third protein. Some binding calls cover weakened binding; strength is not graded here.

B1: bZIP63-YN / bZIP63-YC (protein, UniProt B9DGI8 1-314)
chain: MEKVFSDEEISGNHHWSVNGMTSLNRSASEWAFNRFIQESSAAADDGESTTACGVSVSSPPNVPVDSEEYRAFLKSKLNLACAAVAMKRGTFIKPQDTSGRSDNGGANESEQASLASSKATPMMSSAITSGSELSGDEEEADGETNMNPTNVKRVKRMLSNRESARRSRRRKQAHLSELETQVSQLRVENSKLMKGLTDVTQTFNDASVENRVLKANIETLRAKVKMAEETVKRLTGFNPMFHNMPQIVSTVSLPSETSNSPDTTSSQVTTPEIISSGNKGKALIGCKMNRTASMRRVESLEHLQKRIRSVGDQ
On to B1, for which the binding result is “binds”.
